The experiment deals with human antigen R (HuR)/embryonic lethal abnormal vision-like (ELAVL1), endogenous (human (endogenous in HEK293)) (UniProt Q15717). The experiment can be described thus: co-IP; endogenous proteins of HEK293 cells; lysate incubated with anti-HuR or anti-PARP1 antibody (3 μg) overnight at 4 °C, protein G agarose 3 h, immunoblot; cells mock treated or TNFα 1 h, ± Olaparib or SB203580, or siRNA against PARP1 or p38. On the technique in general: Immunoblotting shows a protein as a band on a membrane.

Protein sequences, listed by entry. Tags and fused reporters are not part of them.
UniProt Q15717: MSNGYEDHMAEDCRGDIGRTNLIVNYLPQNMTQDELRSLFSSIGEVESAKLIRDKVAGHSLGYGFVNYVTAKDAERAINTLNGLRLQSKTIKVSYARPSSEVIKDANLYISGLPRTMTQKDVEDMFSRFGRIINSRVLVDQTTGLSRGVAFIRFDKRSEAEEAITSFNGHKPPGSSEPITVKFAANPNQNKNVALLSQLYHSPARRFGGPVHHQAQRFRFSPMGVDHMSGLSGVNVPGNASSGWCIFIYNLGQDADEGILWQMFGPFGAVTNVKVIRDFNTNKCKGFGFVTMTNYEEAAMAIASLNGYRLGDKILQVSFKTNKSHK
UniProt O14980: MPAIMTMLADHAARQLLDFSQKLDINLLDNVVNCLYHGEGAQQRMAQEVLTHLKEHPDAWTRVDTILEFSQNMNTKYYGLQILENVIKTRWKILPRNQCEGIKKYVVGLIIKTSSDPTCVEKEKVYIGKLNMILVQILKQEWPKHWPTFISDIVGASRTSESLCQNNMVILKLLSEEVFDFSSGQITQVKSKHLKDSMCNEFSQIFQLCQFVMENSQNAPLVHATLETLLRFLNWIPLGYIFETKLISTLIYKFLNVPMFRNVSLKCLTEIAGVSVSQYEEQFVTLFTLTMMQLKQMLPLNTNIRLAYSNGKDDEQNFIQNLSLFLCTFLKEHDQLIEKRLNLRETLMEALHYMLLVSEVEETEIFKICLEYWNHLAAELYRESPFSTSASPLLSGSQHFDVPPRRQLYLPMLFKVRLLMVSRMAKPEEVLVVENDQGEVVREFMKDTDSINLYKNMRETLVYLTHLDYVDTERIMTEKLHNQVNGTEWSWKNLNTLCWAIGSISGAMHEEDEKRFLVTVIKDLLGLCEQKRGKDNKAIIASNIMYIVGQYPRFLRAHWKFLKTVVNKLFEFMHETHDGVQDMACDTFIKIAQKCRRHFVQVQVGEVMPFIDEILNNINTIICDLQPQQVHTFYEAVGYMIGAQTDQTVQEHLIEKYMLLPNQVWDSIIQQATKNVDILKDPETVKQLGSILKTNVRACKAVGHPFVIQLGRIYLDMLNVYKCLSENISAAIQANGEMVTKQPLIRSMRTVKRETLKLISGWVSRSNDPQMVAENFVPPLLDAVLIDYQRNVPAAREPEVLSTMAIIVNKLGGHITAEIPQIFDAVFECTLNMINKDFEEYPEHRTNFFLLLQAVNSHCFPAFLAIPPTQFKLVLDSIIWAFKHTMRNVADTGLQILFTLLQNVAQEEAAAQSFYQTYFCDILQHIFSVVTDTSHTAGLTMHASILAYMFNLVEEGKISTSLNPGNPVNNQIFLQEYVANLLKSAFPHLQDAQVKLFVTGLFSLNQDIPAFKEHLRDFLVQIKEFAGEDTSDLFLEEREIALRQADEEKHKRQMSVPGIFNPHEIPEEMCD

These are yes or no findings as the source states them, for the method shown. In cells and extracts the contact can be indirect. Some results given as binding are weak or reduced against the parent protein; the word gives no strength.

“CRM1, endogenous (from UniProt O14980 1-1071) (other; other documents disagree on this pair)”: the binding result is “binds”.

The record behind these values is publication PMC11335290.
